From PMC4423837
No constants are given. Whether binding was seen depends on the method and setting. In cells and extracts the contact can be indirect. Some entries that bind do so weakly or less than the wild type. Sequences can lack the tags named with a protein.

Protein sequences, listed by entry. Tags and fused reporters are not part of them.
UniProt Q11207: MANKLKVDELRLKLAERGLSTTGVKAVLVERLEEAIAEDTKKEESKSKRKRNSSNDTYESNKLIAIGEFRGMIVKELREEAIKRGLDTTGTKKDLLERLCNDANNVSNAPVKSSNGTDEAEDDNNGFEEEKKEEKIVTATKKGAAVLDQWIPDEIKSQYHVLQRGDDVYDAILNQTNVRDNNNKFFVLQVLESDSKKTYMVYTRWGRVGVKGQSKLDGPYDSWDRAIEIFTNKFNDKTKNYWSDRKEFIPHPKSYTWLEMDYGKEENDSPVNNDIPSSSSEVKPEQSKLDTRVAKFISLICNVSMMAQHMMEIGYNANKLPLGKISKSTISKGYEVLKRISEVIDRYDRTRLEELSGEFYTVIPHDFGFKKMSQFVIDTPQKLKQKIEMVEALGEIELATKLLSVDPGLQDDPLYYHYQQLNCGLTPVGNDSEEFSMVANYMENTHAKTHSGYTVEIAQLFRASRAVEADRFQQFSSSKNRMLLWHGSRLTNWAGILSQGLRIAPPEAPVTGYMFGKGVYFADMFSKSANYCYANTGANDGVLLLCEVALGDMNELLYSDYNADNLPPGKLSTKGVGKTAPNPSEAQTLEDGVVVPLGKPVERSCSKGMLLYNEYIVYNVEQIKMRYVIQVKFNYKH

T1: Arabidopsis PARG2 (poly(ADP-ribose) glycohydrolase 2), GFP- or myc-tagged (Arabidopsis thaliana) (UniProt Q8VYA1)
T1 sequence: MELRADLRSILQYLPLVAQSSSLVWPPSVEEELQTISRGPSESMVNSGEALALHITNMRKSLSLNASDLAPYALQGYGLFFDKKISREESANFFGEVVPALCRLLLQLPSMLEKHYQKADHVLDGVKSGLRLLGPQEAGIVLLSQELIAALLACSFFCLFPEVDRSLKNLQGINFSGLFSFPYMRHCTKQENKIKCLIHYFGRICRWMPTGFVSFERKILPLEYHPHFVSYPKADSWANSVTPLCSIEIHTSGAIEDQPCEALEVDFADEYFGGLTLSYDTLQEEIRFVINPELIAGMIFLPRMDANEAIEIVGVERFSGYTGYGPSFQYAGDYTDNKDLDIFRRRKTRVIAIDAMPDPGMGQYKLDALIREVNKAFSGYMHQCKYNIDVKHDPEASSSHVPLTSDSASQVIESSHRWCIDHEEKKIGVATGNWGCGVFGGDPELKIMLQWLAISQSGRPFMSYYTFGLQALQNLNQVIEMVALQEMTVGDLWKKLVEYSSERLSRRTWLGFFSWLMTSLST

T2: Arabidopsis PARG1 (poly(ADP-ribose) glycohydrolase 1), GFP- or myc-tagged (Arabidopsis thaliana) (UniProt Q9SKB3)
T2 sequence: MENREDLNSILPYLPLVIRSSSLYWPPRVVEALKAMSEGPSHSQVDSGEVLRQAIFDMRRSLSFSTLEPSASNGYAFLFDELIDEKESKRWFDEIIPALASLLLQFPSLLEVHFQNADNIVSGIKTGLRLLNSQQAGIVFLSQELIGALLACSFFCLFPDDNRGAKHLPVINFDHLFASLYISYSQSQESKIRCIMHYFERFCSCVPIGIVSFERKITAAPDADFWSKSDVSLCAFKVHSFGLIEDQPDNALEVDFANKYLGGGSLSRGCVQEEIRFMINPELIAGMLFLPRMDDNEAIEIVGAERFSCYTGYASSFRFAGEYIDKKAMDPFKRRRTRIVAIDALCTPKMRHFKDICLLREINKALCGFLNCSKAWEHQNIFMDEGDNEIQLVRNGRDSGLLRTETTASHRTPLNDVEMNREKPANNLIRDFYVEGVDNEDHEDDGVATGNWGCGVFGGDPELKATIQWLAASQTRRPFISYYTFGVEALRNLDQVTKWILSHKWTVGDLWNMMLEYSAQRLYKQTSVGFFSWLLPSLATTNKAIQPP

B1: myc-tagged Arabidopsis PARP1 (At2g31320) (enzyme, UniProt Q9ZP54 1-983)
chain: MASPHKPWRAEYAKSSRSSCKTCKSVINKENFRLGKLVQSTHFDGIMPMWNHASCILKKTKQIKSVDDVEGIESLRWEDQQKIRKYVESGAGSNTSTSTGTSTSSTANNAKLEYGIEVSQTSRAGCRKCSEKILKGEVRIFSKPEGPGNKGLMWHHAKCFLEMSSSTELESLSGWRSIPDSDQEALLPLVKKALPAAKTETAEARQTNSRAGTKRKNDSVDNEKSKLAKSSFDMSTSGALQPCSKEKEMEAQTKELWDLKDDLKKYVTSAELREMLEVNEQSTRGSELDLRDKCADGMMFGPLALCPMCSGHLSFSGGLYRCHGYISEWSKCSHSTLDPDRIKGKWKIPDETENQFLLKWNKSQKSVKPKRILRPVLSGETSQGQGSKDATDSSRSERLADLKVSIAGNTKERQPWKKRIEEAGAEFHANVKKGTSCLVVCGLTDIRDAEMRKARRMKVAIVREDYLVDCFKKQRKLPFDKYKIEDTSESLVTVKVKGRSAVHEASGLQEHCHILEDGNSIYNTTLSMSDLSTGINSYYILQIIQEDKGSDCYVFRKWGRVGNEKIGGNKVEEMSKSDAVHEFKRLFLEKTGNTWESWEQKTNFQKQPGKFLPLDIDYGVNKQVAKKEPFQTSSNLAPSLIELMKMLFDVETYRSAMMEFEINMSEMPLGKLSKHNIQKGFEALTEIQRLLTESDPQPTMKESLLVDASNRFFTMIPSIHPHIIRDEDDFKSKVKMLEALQDIEIASRIVGFDVDSTESLDDKYKKLHCDISPLPHDSEDYRLIEKYLNTTHAPTHTEWSLELEEVFALEREGEFDKYAPHREKLGNKMLLWHGSRLTNFVGILNQGLRIAPPEAPATGYMFGKGIYFADLVSKSAQYCYTCKKNPVGLMLLSEVALGEIHELTKAKYMDKPPRGKHSTKGLGKKVPQDSEFAKWRGDVTVPCGKPVSSKVKASELMYNEYIVYDTAQVKLQFLLKVRFKHKR
B2: Arabidopsis PARG1 (poly(ADP-ribose) glycohydrolase 1), GFP- or myc-tagged (enzyme, UniProt Q9SKB3 1-548)
chain: T2 sequence

Key:
Assay in all cases: co-IP; GFP- and myc-tagged proteins transiently co-expressed in N. benthamiana leaves; some samples infiltrated with 2 μg/ml bleomycin; extraction buffer 50 mM Tris-HCl pH 7.5, 150 mM NaCl, 5 mM EDTA, 0.2% Triton X-100, 10% glycerol; IP with anti-GFP at 4°C overnight, then protein A beads; blots with anti-myc and anti-GFP
[1] = target: T1, Arabidopsis PARG2 (poly(ADP-ribose) glycohydrolase 2), GFP- or myc-tagged (Arabidopsis thaliana)
[2] = target: T2, Arabidopsis PARG1 (poly(ADP-ribose) glycohydrolase 1), GFP- or myc-tagged (Arabidopsis thaliana)
[3] = target: GFP-tagged Arabidopsis PARP2 (At4g02390) (Arabidopsis thaliana) (UniProt Q11207)

Molecule	binding [1]	binding [2]	binding [3]
GFP-tagged Arabidopsis PARP2 (At4g02390) (from UniProt Q11207 1-637) (enzyme)	binds	binds	–
B1	binds	binds	binds
B2	binds	–	–
